The record followed here is paper PMC4600896.

Amino acid sequences for entries named in this document (tags omitted). A change or cut given only in a name is not applied to a line headed by its entry. Chains listed by the source or under a name are the forms on record and can include a tag or linker.
GFP-xDnmt1 (Q6GQH0, form named): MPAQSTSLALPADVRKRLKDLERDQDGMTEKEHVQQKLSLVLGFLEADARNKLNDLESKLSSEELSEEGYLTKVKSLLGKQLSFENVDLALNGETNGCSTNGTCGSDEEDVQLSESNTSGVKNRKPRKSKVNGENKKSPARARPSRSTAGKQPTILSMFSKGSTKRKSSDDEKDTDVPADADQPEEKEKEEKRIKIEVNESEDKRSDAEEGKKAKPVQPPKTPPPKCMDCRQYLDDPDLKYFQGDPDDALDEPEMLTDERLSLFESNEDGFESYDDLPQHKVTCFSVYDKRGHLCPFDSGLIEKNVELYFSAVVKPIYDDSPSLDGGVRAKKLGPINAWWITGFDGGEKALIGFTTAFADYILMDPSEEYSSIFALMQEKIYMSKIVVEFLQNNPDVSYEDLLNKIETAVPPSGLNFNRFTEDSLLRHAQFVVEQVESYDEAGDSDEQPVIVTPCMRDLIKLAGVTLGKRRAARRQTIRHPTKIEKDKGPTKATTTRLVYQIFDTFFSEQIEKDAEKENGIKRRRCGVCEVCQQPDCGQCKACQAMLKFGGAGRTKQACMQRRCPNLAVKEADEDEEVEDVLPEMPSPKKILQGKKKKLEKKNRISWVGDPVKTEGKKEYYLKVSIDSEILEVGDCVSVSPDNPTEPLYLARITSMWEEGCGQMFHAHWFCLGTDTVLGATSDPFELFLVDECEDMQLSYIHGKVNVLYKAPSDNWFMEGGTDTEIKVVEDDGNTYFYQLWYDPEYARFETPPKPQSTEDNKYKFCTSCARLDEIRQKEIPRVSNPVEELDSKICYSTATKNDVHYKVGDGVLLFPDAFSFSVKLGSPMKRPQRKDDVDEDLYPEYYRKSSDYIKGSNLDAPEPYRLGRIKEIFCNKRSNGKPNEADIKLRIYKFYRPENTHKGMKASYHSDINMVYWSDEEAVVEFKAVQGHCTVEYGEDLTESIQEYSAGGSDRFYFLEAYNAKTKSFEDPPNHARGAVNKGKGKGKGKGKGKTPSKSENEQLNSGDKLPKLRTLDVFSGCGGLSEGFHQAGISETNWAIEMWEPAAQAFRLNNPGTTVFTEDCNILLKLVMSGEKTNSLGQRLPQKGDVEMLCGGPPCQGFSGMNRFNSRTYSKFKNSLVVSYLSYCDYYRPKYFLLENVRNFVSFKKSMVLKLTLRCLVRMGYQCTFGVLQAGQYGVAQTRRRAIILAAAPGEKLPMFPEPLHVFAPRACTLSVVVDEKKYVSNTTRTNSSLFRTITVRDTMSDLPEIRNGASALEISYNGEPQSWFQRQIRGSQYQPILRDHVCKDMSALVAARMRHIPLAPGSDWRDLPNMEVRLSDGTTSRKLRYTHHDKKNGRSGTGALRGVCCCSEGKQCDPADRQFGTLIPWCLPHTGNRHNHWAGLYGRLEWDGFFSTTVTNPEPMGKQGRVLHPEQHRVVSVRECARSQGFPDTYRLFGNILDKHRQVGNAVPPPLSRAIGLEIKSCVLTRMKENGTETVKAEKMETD

The target of the test is T1, T7-xLsh (Xenopus laevis) (UniProt Q4V835).
T1 sequence: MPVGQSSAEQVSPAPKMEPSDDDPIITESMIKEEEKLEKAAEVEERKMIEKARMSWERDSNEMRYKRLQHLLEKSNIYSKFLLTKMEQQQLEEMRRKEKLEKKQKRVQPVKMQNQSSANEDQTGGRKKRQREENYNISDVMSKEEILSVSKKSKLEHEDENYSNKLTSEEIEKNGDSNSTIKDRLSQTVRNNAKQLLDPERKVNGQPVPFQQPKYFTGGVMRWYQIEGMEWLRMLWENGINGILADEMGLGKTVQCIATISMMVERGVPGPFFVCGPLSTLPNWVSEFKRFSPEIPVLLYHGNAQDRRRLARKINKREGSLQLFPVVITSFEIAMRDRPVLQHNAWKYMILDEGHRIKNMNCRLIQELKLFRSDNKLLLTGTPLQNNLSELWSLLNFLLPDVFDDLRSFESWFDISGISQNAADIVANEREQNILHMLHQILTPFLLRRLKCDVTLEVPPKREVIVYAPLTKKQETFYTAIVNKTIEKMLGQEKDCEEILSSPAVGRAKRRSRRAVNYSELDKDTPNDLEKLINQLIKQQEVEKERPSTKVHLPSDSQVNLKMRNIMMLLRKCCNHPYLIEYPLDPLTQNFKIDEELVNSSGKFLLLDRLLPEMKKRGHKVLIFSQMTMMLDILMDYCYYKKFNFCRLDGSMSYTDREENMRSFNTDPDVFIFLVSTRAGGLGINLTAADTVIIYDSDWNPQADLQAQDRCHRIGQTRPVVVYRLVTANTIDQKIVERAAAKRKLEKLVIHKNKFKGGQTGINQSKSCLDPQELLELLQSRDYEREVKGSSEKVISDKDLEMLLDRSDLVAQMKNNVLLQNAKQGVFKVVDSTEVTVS
Kind of test: co-IP; GFP-xDnmt1 and T7-xLsh coexpressed in 293T cells, nuclear extracts, immunoprecipitated under high salt conditions (250 mM NaCl), reciprocal.

No constants are given. Whether binding was seen depends on the method and setting. In cells and extracts the contact can be indirect. Some results given as binding are weak or reduced against the parent protein; the word gives no strength.

For the substance GFP-xDnmt1 (from UniProt Q6GQH0 1-1490), the binding entry is listed as “binds”.
